The other results are listed elsewhere or left out.
The targets below were run with COc1ccc(Cn2ccc3cc(C)c(C(=O)NO)cc32)cc1 (assay: dose-dependent thermal stabilisation call (2D-TPP, DLPTP, 10% FDR) (binary (1 = stabilised)); higher = stabilised by the compound). Conditions: system: HL-60 intact cells; concentration range 0.04-10 µM.
Protocol: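 2D thermal proteome profiling in intact HL-60 cells treated with BRD-3811 (0, 0.04, 0.29, 2, 10 uM) for 90 min at 37 C, then heated 3 min at one of 12 temperatures (42-63.9 C). Soluble protein was quantified by TMT10 MS. The value is the DLPTP call of the paper: dose-dependent thermal stabilisation over all temperatures at 10% FDR (F-test of a dose-response against a flat model); one experiment, one call per tested protein.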

Protein sequences, listed by entry. Tags and fused reporters are not part of them. Lines headed by an entry give the natural chain unless they say otherwise; changes in a name come on top.
UniProt P25440, whole entry, looked up: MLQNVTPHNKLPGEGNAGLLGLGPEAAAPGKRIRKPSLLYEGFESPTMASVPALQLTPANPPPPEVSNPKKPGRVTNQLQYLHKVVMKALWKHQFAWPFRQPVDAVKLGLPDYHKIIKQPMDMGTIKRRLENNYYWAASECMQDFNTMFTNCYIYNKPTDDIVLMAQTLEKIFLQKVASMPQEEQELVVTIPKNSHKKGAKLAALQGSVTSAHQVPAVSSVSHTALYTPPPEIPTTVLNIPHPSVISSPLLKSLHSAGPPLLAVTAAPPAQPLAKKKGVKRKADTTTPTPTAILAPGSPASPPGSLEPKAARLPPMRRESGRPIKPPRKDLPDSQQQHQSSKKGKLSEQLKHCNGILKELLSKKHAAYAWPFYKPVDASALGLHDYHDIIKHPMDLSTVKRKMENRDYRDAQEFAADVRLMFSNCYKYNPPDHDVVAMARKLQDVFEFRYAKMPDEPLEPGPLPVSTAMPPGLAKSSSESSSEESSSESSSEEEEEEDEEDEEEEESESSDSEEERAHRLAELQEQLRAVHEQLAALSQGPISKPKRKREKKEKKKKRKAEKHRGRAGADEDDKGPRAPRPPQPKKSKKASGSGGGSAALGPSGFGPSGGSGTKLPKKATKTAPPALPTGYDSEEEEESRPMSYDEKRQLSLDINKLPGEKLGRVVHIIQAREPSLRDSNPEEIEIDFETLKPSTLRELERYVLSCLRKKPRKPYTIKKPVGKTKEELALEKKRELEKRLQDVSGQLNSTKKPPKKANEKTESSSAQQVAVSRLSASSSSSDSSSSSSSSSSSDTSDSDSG
UniProt P11274: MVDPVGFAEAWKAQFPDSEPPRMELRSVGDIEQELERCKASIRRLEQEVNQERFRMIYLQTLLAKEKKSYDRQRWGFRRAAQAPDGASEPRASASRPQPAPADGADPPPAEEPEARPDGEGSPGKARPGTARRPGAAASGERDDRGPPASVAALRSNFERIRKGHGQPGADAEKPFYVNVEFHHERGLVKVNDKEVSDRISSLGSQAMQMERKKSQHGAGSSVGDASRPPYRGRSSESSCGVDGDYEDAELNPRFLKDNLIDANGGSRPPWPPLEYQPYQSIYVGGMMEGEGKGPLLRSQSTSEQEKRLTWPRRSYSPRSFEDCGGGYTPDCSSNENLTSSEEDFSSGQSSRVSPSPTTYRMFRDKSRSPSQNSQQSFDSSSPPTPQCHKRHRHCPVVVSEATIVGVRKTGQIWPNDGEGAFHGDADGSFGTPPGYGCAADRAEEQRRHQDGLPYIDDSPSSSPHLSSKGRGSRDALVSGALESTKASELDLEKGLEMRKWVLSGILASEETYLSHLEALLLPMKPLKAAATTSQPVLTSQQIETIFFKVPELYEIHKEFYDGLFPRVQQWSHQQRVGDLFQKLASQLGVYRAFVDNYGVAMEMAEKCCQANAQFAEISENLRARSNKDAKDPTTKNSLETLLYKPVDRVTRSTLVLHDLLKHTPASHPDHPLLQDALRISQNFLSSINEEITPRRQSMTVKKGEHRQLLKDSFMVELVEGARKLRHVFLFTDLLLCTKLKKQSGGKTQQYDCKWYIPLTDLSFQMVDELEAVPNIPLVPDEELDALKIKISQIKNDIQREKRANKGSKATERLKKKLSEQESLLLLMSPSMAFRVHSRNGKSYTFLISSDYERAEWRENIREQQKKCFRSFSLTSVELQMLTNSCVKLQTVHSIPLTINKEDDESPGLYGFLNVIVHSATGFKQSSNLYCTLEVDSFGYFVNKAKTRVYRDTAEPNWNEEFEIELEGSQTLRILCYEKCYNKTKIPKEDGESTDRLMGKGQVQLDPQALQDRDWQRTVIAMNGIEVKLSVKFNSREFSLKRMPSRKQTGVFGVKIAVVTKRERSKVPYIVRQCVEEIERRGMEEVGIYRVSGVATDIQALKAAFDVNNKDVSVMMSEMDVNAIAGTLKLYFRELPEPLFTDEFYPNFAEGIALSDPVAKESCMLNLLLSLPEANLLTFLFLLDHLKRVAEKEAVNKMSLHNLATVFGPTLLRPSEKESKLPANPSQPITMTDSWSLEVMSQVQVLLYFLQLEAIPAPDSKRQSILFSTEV
UniProt Q08AG7, whole entry: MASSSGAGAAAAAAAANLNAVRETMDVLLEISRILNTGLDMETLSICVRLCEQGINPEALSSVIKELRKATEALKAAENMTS
UniProt Q8N6Q8: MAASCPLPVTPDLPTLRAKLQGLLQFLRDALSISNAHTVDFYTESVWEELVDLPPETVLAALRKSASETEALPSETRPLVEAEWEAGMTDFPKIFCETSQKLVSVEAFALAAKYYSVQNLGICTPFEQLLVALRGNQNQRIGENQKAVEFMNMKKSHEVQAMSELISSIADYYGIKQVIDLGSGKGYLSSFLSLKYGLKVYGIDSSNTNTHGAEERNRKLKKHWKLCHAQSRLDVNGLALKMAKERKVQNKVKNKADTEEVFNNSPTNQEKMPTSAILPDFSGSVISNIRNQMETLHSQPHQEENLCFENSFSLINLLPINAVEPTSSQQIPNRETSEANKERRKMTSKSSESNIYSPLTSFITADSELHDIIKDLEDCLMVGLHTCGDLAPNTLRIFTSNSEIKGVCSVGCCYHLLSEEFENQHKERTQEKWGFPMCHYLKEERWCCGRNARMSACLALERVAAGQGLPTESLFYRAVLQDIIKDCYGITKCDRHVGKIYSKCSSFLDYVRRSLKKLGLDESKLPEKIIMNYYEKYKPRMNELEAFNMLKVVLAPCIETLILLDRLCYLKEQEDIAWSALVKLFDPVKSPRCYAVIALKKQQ
UniProt Q8NCR0: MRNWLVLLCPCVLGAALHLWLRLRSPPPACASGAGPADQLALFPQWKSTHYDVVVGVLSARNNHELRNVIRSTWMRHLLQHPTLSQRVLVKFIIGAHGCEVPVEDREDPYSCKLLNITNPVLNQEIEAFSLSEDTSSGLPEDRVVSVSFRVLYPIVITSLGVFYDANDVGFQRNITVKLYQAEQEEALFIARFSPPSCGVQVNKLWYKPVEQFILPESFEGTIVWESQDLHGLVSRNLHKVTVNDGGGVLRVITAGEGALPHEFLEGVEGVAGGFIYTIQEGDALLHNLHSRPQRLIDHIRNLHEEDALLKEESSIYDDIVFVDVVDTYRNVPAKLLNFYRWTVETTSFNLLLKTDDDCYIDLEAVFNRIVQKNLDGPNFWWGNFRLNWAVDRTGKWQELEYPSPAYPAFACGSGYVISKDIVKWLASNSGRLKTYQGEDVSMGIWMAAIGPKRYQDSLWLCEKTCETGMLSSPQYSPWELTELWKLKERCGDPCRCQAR
UniProt Q9BUA3: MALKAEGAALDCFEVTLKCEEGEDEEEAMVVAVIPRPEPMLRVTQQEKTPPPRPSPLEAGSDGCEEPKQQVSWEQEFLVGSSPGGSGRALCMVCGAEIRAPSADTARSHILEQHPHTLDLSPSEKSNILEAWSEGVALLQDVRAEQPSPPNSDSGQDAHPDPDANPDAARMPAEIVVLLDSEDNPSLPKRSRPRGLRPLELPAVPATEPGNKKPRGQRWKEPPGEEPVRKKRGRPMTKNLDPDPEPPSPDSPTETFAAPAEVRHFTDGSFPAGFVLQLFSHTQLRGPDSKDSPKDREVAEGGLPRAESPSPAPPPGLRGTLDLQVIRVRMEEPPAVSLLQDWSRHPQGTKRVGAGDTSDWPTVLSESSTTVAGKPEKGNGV
UniProt Q7KYR7: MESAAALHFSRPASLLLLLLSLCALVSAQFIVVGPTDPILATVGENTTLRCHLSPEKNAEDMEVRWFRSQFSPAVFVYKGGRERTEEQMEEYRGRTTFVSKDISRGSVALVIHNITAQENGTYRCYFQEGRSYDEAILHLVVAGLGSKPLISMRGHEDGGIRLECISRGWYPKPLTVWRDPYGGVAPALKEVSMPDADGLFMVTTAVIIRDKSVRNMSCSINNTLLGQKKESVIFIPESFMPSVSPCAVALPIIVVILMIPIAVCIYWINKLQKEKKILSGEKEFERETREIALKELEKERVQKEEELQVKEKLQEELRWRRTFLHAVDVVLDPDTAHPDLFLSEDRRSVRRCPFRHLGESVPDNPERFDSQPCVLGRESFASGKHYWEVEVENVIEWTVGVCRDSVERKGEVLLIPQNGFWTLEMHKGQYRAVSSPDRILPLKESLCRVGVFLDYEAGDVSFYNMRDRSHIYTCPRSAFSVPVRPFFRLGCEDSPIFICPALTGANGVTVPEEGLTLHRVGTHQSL
UniProt Q96B45: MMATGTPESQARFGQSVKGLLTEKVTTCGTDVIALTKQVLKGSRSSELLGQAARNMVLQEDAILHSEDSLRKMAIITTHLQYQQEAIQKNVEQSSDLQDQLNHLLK
UniProt Q96G01: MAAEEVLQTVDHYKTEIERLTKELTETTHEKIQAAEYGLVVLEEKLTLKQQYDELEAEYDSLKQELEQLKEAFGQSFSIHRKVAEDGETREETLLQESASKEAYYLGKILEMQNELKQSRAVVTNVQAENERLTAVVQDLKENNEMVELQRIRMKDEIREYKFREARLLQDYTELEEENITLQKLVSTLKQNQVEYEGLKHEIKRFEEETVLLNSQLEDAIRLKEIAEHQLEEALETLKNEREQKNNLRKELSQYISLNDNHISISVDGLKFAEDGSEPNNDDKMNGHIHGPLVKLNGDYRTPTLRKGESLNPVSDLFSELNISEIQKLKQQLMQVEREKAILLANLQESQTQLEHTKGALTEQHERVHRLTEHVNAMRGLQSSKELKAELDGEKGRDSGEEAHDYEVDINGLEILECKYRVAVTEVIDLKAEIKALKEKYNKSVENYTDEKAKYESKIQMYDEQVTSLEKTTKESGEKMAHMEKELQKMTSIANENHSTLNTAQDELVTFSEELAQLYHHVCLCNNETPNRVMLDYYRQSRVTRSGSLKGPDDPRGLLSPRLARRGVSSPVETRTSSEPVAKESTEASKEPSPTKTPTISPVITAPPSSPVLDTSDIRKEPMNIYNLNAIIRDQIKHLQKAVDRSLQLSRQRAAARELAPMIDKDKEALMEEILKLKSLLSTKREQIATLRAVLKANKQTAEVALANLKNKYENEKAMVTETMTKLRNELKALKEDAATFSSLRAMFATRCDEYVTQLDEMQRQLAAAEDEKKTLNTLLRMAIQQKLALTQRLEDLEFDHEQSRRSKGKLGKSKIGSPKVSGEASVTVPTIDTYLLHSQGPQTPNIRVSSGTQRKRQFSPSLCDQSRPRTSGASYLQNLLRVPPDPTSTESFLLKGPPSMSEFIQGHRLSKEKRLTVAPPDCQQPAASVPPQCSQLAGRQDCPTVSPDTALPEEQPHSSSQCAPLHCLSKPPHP
UniProt P46736, whole entry: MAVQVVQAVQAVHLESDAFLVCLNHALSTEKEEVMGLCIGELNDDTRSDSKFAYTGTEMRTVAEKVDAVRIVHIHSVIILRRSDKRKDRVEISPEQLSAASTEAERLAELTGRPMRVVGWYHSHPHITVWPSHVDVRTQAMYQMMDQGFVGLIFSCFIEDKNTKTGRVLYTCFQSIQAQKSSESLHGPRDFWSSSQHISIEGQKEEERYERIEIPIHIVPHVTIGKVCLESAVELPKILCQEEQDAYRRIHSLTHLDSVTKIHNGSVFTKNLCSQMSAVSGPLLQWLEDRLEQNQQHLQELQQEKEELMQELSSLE
UniProt Q9Y5K8, whole entry: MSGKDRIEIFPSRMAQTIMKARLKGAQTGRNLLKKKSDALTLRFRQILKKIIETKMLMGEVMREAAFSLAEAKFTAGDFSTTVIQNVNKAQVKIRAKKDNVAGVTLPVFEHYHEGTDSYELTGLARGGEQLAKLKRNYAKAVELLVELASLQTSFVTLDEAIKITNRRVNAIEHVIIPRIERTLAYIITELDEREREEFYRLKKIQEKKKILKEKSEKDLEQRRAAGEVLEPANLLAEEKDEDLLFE
UniProt Q96SY0, whole entry: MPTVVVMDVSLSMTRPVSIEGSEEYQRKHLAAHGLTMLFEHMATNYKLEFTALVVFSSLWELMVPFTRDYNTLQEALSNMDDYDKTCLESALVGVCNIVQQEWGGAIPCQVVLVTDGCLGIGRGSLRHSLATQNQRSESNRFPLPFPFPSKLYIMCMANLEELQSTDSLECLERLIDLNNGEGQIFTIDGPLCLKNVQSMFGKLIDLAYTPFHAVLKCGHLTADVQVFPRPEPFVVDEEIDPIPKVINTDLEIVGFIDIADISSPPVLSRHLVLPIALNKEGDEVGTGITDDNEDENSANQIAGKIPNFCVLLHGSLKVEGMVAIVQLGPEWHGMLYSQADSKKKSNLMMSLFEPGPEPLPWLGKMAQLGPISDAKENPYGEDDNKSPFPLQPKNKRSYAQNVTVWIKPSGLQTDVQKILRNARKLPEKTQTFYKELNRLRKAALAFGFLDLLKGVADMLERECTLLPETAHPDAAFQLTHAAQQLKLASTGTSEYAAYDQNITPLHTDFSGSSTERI
UniProt P10415, whole entry: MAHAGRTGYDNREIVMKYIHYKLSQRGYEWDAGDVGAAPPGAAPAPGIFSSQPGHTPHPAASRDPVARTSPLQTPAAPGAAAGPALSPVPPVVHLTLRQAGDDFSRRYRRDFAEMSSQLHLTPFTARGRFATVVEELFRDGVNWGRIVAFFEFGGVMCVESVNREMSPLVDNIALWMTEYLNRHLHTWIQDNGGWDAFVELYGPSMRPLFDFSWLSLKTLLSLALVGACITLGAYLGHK

How did the “dose-dependent thermal stabilisation call” value turn out when BMP2K (UniProt Q9NSY1) was run?
The value was inactive: 0.

How did the “dose-dependent thermal stabilisation call” value turn out when BRD2 (UniProt P25440) was run?
The value was inactive: 0.

How did the “dose-dependent thermal stabilisation call” value turn out when BCR (UniProt P11274) was run?
Its value is inactive: 0.

How did the “dose-dependent thermal stabilisation call” value turn out when BST2 (UniProt Q10589) was run?
Its value is inactive: 0.

Which “dose-dependent thermal stabilisation call” value does the source give for C13ORF37 (UniProt Q08AG7) here?
The value was inactive: 0.

How did the “dose-dependent thermal stabilisation call” value turn out when C12ORF26 (UniProt Q8N6Q8) was run?
Its value is inactive: 0.

How did the “dose-dependent thermal stabilisation call” value turn out when B3GALNT2 (UniProt Q8NCR0) was run?
Its value is inactive: 0.

How did the “dose-dependent thermal stabilisation call” value turn out when BCKDK (UniProt O14874) was run?
The value was inactive: 0.

For B4GALT7 (UniProt Q9UBV7), which “dose-dependent thermal stabilisation call” value is on record?
The value was inactive: 0.

For BAG4 (UniProt O95429), which “dose-dependent thermal stabilisation call” value is on record?
Its value is inactive: 0.

C13ORF27 (UniProt Q5JUR7) was tested. Which “dose-dependent thermal stabilisation call” value did it give?
Its value is inactive: 0.

For BCL2L1 (UniProt Q07817), which “dose-dependent thermal stabilisation call” value is on record?
The value was inactive: 0.

For C11ORF84 (UniProt Q9BUA3), which “dose-dependent thermal stabilisation call” value is on record?
Its value is inactive: 0.

How did the “dose-dependent thermal stabilisation call” value turn out when BARD1 (UniProt Q99728) was run?
The value was inactive: 0.

Which “dose-dependent thermal stabilisation call” value does the source give for BTN2A1 (UniProt Q7KYR7) here?
Its value is inactive: 0.

How did the “dose-dependent thermal stabilisation call” value turn out when ATP5F1 (UniProt P24539) was run?
Its value is inactive: 0.

BLMH (UniProt Q13867) was tested. Which “dose-dependent thermal stabilisation call” value did it give?
The value was inactive: 0.

Which “dose-dependent thermal stabilisation call” value does the source give for C16ORF62 (UniProt Q7Z3J2) here?
Its value is inactive: 0.

How did the “dose-dependent thermal stabilisation call” value turn out when C10ORF32 (UniProt Q96B45) was run?
Its value is inactive: 0.

BICD1 (UniProt Q96G01) was tested. Which “dose-dependent thermal stabilisation call” value did it give?
Its value is inactive: 0.

BPI (UniProt P17213) was tested. Which “dose-dependent thermal stabilisation call” value did it give?
The value was inactive: 0.

For BRCC3 (UniProt P46736), which “dose-dependent thermal stabilisation call” value is on record?
The value was inactive: 0.

With ATP6V1D (UniProt Q9Y5K8) as the target, how does the “dose-dependent thermal stabilisation call” value read?
The value was inactive: 0.

Which “dose-dependent thermal stabilisation call” value does the source give for C15ORF44 (UniProt Q96SY0) here?
Its value is inactive: 0.

Which “dose-dependent thermal stabilisation call” value does the source give for C10ORF54 (UniProt Q9H7M9) here?
The value was inactive: 0.

For BCL2 (UniProt P10415), which “dose-dependent thermal stabilisation call” value is on record?
The value was inactive: 0.

Which “dose-dependent thermal stabilisation call” value does the source give for BPHL (UniProt Q86WA6) here?
Its value is inactive: 0.

BTBD1 (UniProt Q9H0C5) was tested. Which “dose-dependent thermal stabilisation call” value did it give?
Its value is inactive: 0.

For ATPAF1 (UniProt Q5TC12), which “dose-dependent thermal stabilisation call” value is on record?
The value was inactive: 0.

With C10ORF104 (UniProt Q96DE5) as the target, how does the “dose-dependent thermal stabilisation call” value read?
Its value is inactive: 0.

BNIP1 (UniProt Q12981) was tested. Which “dose-dependent thermal stabilisation call” value did it give?
Its value is inactive: 0.

With BAZ1A (UniProt Q9NRL2) as the target, how does the “dose-dependent thermal stabilisation call” value read?
Its value is inactive: 0.

Which “dose-dependent thermal stabilisation call” value does the source give for B3GALTL (UniProt Q6Y288) here?
Its value is inactive: 0.

Which “dose-dependent thermal stabilisation call” value does the source give for ATP5O (UniProt P48047) here?
Its value is inactive: 0.

BGLAP (UniProt P02818) was tested. Which “dose-dependent thermal stabilisation call” value did it give?
Its value is inactive: 0.

For C11ORF31 (UniProt Q8IZQ5), which “dose-dependent thermal stabilisation call” value is on record?
Its value is inactive: 0.

BUB1 (UniProt O43683) was tested. Which “dose-dependent thermal stabilisation call” value did it give?
Its value is inactive: 0.

ATP6V1C1 (UniProt P21283) was tested. Which “dose-dependent thermal stabilisation call” value did it give?
The value was inactive: 0.

For C19ORF54 (UniProt Q5BKX5), which “dose-dependent thermal stabilisation call” value is on record?
Its value is inactive: 0.

For UniProt B4E3W1_HUMAN, which “dose-dependent thermal stabilisation call” value is on record?
The value was inactive: 0.

Source: the supplement of paper PMC7666118
